Assay results taken from paper PMC7203109.
These are yes or no findings as the source states them, for the method shown. Binding seen in cells or lysates may run through a third protein. Some binding calls cover weakened binding; strength is not graded here.

Chains of the proteins cited; added tags and fusions are not shown.
UniProt Q61687: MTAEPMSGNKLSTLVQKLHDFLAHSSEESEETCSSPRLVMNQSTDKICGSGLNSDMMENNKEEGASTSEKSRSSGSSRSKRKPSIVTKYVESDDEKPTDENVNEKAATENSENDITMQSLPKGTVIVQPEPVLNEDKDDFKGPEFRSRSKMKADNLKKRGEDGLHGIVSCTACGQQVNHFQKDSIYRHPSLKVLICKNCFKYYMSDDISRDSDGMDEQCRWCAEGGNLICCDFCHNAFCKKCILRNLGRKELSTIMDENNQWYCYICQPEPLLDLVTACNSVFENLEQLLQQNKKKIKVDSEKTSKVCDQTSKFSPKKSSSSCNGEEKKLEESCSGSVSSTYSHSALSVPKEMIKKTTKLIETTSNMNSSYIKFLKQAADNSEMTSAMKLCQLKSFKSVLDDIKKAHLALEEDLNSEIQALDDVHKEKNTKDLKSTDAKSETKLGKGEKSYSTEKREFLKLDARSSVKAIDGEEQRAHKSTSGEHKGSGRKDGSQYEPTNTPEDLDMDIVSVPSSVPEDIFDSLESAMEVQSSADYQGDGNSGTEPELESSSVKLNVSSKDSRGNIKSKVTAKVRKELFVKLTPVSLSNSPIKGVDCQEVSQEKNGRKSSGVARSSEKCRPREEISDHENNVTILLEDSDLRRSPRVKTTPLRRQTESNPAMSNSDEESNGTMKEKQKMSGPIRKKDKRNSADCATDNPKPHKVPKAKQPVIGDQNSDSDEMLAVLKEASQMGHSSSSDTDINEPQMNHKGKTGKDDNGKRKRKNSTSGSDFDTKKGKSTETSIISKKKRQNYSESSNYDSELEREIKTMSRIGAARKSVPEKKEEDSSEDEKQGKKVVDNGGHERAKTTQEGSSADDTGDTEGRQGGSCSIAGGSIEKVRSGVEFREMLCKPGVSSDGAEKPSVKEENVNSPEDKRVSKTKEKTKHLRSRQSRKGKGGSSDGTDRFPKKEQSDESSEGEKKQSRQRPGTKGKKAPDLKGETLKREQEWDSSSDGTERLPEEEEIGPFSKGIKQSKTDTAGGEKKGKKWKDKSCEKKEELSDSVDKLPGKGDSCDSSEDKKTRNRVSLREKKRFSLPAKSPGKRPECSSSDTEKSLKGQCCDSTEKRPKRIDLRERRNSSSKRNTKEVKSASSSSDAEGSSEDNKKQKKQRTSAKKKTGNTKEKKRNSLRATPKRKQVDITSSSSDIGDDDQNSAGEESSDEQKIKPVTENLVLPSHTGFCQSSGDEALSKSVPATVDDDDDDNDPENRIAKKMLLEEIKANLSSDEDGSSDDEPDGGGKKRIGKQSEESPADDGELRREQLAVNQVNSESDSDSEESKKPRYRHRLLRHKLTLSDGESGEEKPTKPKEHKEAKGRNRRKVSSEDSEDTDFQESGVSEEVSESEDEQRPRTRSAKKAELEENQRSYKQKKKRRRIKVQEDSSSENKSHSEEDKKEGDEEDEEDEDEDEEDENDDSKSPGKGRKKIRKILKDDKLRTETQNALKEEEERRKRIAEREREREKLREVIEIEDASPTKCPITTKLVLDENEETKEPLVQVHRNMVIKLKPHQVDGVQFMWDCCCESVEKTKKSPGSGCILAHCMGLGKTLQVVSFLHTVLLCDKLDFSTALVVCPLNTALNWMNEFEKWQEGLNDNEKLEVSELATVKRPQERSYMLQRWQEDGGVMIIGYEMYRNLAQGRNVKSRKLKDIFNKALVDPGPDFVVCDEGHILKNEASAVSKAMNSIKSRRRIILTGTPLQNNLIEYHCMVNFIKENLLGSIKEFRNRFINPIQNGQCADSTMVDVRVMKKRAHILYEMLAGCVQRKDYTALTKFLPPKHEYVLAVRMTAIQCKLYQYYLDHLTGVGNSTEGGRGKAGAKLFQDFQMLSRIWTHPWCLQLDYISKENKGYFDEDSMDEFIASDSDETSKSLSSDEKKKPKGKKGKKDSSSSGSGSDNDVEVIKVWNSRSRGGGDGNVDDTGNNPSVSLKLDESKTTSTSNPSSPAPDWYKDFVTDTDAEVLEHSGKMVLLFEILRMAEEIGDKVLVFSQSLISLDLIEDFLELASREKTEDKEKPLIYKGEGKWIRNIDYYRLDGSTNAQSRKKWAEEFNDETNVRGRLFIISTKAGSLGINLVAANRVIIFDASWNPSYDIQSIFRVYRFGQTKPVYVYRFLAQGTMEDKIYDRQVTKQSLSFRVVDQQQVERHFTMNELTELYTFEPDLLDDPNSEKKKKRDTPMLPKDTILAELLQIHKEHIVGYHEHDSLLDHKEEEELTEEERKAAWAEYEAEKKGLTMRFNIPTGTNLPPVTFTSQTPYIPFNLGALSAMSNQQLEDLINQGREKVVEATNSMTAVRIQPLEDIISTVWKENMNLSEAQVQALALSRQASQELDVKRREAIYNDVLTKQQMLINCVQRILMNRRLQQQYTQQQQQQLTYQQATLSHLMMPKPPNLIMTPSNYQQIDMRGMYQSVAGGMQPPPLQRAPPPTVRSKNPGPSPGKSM
UniProt O35613: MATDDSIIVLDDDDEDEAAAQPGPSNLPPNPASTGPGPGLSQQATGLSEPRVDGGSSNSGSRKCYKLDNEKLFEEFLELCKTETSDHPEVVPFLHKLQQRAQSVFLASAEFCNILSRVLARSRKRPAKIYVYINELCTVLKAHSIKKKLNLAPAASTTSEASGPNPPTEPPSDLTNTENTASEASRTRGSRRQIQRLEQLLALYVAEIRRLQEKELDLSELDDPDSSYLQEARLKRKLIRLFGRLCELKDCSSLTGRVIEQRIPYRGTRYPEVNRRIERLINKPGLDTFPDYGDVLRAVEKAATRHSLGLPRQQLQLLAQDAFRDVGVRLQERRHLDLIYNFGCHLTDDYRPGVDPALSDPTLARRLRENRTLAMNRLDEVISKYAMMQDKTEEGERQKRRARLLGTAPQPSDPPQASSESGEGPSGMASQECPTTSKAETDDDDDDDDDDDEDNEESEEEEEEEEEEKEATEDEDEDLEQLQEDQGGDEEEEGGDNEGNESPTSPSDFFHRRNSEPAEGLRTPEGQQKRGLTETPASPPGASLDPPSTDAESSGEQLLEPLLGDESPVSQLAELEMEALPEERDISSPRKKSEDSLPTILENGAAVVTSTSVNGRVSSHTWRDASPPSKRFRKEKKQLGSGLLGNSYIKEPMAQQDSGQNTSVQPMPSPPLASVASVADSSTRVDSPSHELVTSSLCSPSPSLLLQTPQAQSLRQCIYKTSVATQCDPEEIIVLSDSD

Target: ATRX (alpha-thalassemia X-linked mental retardation), endogenous wild type in female MEFs (mouse (endogenous in MEFs)) (UniProt Q61687)
Test: co-IP; endogenous IP: 1 mg MEF nuclear extract with ATRX antibody coupled to protein A agarose; washed with BC300, eluted with 0.1 M glycine pH 2.5; blots with ATRX and DAXX antibodies; IgG as control

binding: binds
Substance: DAXX, endogenous in MEFs (from UniProt O35613 1-739)
